These are yes or no findings as the source states them, for the method shown.
Legend:
[1] = molecular target: HuCR1(1392)/CSL040, soluble human complement receptor 1 truncated at amino acid 1392 (LHR-A, LHR-B and LHR-C) (human) (UniProt P17927); experiment: SEC-MALS; about 20 ug protein on Superdex 200 Increase 5 x 150 mm GL, Dulbecco's PBS, 0.15 ml/min, ambient temperature; both purified
[2] = molecular target: HuCR1(1971), soluble full-length extracellular domain of human complement receptor 1 (LHR-A, -B, -C and -D) (human) (UniProt P17927); experiment: as above

Chains of the proteins cited; added tags and fusions are not shown. Lines headed by an entry give the natural chain unless they say otherwise; changes in a name come on top.
UniProt P17927: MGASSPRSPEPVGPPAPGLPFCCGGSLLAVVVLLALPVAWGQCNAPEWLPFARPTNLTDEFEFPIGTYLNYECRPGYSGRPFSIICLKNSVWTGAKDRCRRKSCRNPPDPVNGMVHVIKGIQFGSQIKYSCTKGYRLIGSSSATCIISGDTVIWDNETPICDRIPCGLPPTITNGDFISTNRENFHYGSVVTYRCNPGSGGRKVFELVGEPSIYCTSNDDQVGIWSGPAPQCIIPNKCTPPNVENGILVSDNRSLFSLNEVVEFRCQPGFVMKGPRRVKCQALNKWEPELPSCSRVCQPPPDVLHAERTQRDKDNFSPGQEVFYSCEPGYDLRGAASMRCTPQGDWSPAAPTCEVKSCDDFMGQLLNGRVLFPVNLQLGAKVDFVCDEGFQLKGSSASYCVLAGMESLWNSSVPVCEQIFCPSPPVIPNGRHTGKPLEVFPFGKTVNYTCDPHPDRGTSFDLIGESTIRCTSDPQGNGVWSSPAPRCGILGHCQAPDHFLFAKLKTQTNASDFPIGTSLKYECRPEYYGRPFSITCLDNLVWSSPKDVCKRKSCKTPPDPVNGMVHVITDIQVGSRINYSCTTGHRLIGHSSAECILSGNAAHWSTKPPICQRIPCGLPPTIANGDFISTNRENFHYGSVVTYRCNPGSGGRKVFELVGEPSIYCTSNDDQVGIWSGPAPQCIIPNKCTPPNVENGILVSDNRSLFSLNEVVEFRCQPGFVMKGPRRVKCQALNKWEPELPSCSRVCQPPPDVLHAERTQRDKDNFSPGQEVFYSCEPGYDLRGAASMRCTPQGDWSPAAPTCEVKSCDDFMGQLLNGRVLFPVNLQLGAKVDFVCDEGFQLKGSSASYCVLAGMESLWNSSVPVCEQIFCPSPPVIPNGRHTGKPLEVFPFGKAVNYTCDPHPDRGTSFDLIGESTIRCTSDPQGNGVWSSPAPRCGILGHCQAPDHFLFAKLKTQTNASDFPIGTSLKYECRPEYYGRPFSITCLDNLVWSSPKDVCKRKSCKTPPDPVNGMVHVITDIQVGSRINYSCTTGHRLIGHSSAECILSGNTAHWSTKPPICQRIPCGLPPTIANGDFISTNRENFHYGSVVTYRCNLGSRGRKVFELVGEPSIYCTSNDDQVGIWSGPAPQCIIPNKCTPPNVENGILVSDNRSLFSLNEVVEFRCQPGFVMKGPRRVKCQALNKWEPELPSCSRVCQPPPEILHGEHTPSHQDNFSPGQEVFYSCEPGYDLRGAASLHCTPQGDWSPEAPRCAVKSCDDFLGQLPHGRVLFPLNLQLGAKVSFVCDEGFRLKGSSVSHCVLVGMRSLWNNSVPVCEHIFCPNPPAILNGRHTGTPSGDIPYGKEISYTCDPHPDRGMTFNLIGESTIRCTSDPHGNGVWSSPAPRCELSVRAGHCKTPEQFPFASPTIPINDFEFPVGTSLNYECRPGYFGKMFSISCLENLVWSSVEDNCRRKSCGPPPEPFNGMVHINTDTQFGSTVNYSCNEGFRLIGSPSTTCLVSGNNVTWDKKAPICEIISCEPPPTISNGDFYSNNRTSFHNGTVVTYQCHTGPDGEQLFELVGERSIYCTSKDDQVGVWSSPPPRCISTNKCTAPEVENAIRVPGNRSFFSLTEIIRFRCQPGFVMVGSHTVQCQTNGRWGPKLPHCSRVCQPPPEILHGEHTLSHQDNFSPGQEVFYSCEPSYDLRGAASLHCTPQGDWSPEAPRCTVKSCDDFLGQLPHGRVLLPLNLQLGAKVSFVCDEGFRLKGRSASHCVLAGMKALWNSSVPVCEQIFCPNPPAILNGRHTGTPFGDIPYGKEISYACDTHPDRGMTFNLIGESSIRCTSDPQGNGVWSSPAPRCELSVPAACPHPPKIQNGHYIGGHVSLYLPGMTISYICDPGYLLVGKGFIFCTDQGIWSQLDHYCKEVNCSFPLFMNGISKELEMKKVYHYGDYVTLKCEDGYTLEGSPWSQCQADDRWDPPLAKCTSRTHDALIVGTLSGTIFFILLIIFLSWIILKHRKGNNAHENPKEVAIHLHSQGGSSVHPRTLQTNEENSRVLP

| binding [1] | binding [2] | Substance |
| --- | --- | --- |
| no binding | – | HuCR1(1392)/CSL040, soluble human complement receptor 1 truncated at amino acid 1392 (LHR-A, LHR-B and LHR-C) (from UniProt P17927 42-1392) |
| – | no binding | HuCR1(1971), soluble full-length extracellular domain of human complement receptor 1 (LHR-A, -B, -C and -D) (from UniProt P17927 42-1971) |
